The exact form of at least one protein or probe is not confirmed. Results from cells or extracts need not show a direct contact. No signal at the amounts used counts as a negative.
Test system: PABF (lambda900 C-terminal fragment, beta-galactosidase fusion, ~130 kDa) (Nicotiana tabacum)
Test: binding assay
Conditions: plaque filter binding, protein in a lysate after overexpression
[1] = letters built from the parent sequence and the stated change

Sequence	binding result	binding result [1]
AATTAATTAATTAATTAATTAATTAATTAATTAATTAATTAATTAATTAATT (double strand) [PAs (AATT)13]	binds	–
CATAAGGATTAGGAATTTAATTTCGTAG (double strand) [PF]	–	no binding
CGACTCACCTACCTGACATGCTACGCAGCG (double strand) [H-box]	–	no binding
CTTGTCATTATTTCTCCACCAACCCCCTTCACTTCCC (double strand)	–	no binding
TGCAGGTGTTGCACGTGATACTCACCTACCCTGCA (double strand) [G-box]	–	no binding

From patent publication US6191258
